# In PubChem BioAssay AID493014 (National Center for Advancing Translational Sciences (NCATS), 2011):
# About 170 (0.05%) of roughly 340,000 compounds were called active. This list was built around the results that the source calls inconclusive (neither active nor inactive); the mix of calls is not that of the screen. Calls come from the whole dose curve; as a rule, active = well fitted inhibition curve with a large enough effect in the signal ratio, with a control signal flat (not every such curve was filed as active); inconclusive = small, poorly fitted or top-dose-only effect, or effect the other way, or a change in a side signal; inactive = flat fitted curve, though single readings scatter; the % refers to the signal ratio. Potencies of inconclusive entries are doubtful fits and often do not repeat.
# Test: qHTS Assay to Find Inhibitors of Chronic Active B-Cell Receptor Signaling;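 for activity change, negative = inhibition: plate controls were basal doxycycline-induced cells for no effect and cells given 10 µM MG132 for full effect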
# Conditions: ABC-DLBCL IkBa-CBG/CBR reporter, luminescence ratio (green luciferase fused to IkBa over red control in TMD8 lymphoma cells), 4 h; activity change, negative = inhibition: at 46.1 µM (top of the series)
# Method in brief: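 Cell line TMD8 (human ABC DLBCL), stably expressing tet-inducible CBG68-IkBa fusion and CBR; IMDM/0.5% FBS; cpd up to 46 uM; dox induction, 4 h, 37C/5% CO2; dual luminescence; green/red ratio; MG132 control.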
# Potency is the fitted concentration of half-maximal effect.
Structure (SMILES),"activity change, negative = inhibition",Potency
CCN(C(=O)CSc1nc(C)nc2sc3c(c12)CCC3)C1CCS(=O)(=O)C1 (stereo not given),inconclusive: 1.26%,
NC(=O)CSc1ncnc2c1nnn2Cc1ccc(F)cc1,inconclusive: -0.69%,
O=C(NC1CCCCC1)C(c1cccs1)N(C(=O)c1ccco1)c1ccc2c(c1)OCCO2 (stereo not given),,"inconclusive: 29.1 µM [falling, single point]"
Cc1occc1C(=O)O/N=C(\N)c1ccccc1,,"inconclusive: 35.5 µM [rising, single point]"
Oc1ccc(/C=N/N=C(c2ccccc2)c2ccccc2)c(O)c1O,inactive: 8.07%,
CCCN1C(=O)c2cc(C(=O)Nc3cccc(C(C)=O)c3)ccc2C1Nc1cccc(C(C)=O)c1 (stereo not given),inactive: -19.1%,
CN(CCOc1ccccc1)C(=O)C1CCC(=O)N(CCc2ccc(Cl)cc2)C1 (stereo not given),inconclusive: -1.98%,
O=[N+]([O-])c1ccc(Sc2ccccn2)nc1,inactive: -19.5%,
CCOc1cc(/C=N\Nc2nc(Nc3ccccc3)nc(N3CCOCC3)n2)ccc1OC(=O)c1ccco1,,"inconclusive: 6.51 µM [falling, partial curve, poor fit]"
CCN(Cc1nc2ccccc2c(=O)[nH]1)C(=O)c1ccc(C)c(NC(=O)c2ccco2)c1,inactive: -0.511%,
Cc1cccc(CSc2nnc(-c3cccs3)n2Cc2ccco2)c1,inactive: 6.69%,
O=c1cc(-c2ccco2)oc2c1ccc1ccccc12,inconclusive: 24.3%,
COc1ccc(-c2noc(CSc3ccccc3)n2)cc1OC,inconclusive: 9.55%,
COc1ccc(C2Nc3ccccc3NC3=C2C(=O)CC(C)(C)C3)cc1 (stereo not given),inactive: -12.4%,
CCn1cc(C(=O)Nn2cnnc2)c(=O)c2ccc(C)nc21,inconclusive: 3.7%,
COc1ccc(/C=C2/SC(=O)NC2=O)cc1,,"inconclusive: 31.6 µM [falling, single point]"
CC(NC(=O)COC(=O)c1ccc(N(C)C)cc1)c1ccccc1 (stereo not given),inconclusive: -0.395%,
COC1=CC(=O)c2ccccc2C1=O,inconclusive: -9.79%,
Cc1ccc(Nc2nc(N3CCOCC3)nc(N3CCOCC3)n2)cc1C,,"inconclusive: 5.01 µM [falling, partial curve, poor fit]"
Cc1cccc(-c2nc(CC(=O)Nc3cccc(S(=O)(=O)NC4=NCCC4)c3)cs2)c1,inconclusive: 7.52%,
CCO[C@H]1OC(C(=O)N2CCOCC2)=C[C@@H](c2ccccc2)[C@@H]1CCCO,inconclusive: 12.5%,
O=C(COc1cccnc1[N+](=O)[O-])Nc1ccc2c(c1)OC(F)(F)O2,inconclusive: 7.16%,
COc1ccccc1NS(=O)(=O)c1ccc(C(=O)Nc2ncccc2O)cc1,inconclusive: -4.95%,
CCc1nnc(NC(=O)COc2ccccc2[N+](=O)[O-])s1,,"inconclusive: 35.5 µM [falling, single point]"
COc1cccc(CNCCc2c[nH]c3ccccc23)c1OCc1ccc(F)cc1,inconclusive: -20.2%,
CC(=O)Nc1ccc(C=NNc2ccc(S(=O)(=O)Nc3ccccc3C(=O)O)cc2[N+](=O)[O-])cc1,inactive: 4.67%,
Cc1nn(-c2ccccc2)c2[nH]c(=O)c(CNc3ccc(N4CCOCC4)cc3)cc12,inconclusive: -6.08%,

Structure (SMILES),"activity change, negative = inhibition",Potency
O=C(COC(=O)/C=C/C(=O)N1CCN(c2ccccc2)CC1)NC(c1ccccc1)c1ccccc1,,"inconclusive: 28.2 µM [falling, single point]"
Cc1ccc(S(=O)(=O)/N=c2\ccc(Cl)cn2C(F)F)cc1,inconclusive: 0.314%,
CCc1ccc(-c2csc(NC(=O)COC(=O)CCc3nc4ccccc4s3)n2)cc1,inconclusive: 5.03%,
COc1cccc(-n2c(CNc3ccc(F)cc3)nnc2SCC(N)=O)c1,inconclusive: -24.6%,
O=C(Cn1cnc2ccccc2c1=O)Nc1ccc2c(c1)OCCO2,inactive: -0.0454%,
O=C(Nc1cccc(-n2cnnn2)c1)c1ccco1,inactive: -1.01%,
O=C(COC(=O)c1ccc(NS(=O)(=O)c2cccs2)cc1O)NC1CCCCC1,inconclusive: -2.48%,
O=C(CSc1nnc(CCCN2C(=O)c3cccc4cccc(c34)C2=O)n1-c1ccccc1)NCCCN1CCOCC1,inconclusive: -1.28%,
CC(/C=C\C=C\c1ccccc1)=N\NC(=O)c1cncc(Br)c1,,"inconclusive: 22.4 µM [falling, partial curve, poor fit]"
O=C(Nc1nnc(-c2ccccc2Cl)o1)c1ccc(S(=O)(=O)N2CCCCCC2)cc1,inconclusive: -7.4%,
O=C(Nc1nc2c(s1)CCCC2)c1cc2n(n1)C(C(F)(F)F)CC(C1CC1)N2 (stereo not given),inconclusive: 6.38%,
Cc1nc(SCc2nc3c(F)cccc3[nH]2)c2oc3ccccc3c2n1,inconclusive: 0.263%,
Cn1c(=O)c2c(nc(Oc3ccccc3Br)n2C)n(C)c1=O,inconclusive: 2.51%,
Cn1c(=NC(=O)COc2ccccc2)sc2cc(F)cc(F)c21,inconclusive: 4.02%,
Cc1onc(-c2ccccc2)c1C(=O)N/N=C/c1ccccc1OC(C)C,inconclusive: -13.1%,
C=CCNC(=S)N1CC2(C)CN(C(=S)NCC=C)CC(C)(C1)C2=O,inactive: -26%,
CCN1CCN(c2nc(N)c([N+](=O)[O-])c(Nc3ccc(C)cc3)n2)CC1,inconclusive: 2.13%,
Cc1ccc(C(=O)c2ncc[nH]2)cc1,inactive: -1.52%,
O=C(N/N=C/c1ccc[nH]1)c1ccccc1O,,"inconclusive: 3.98 µM [rising, partial curve, poor fit]"
O=S(=O)(NCC(c1ccccc1)N1CCNCC1)c1ccc(Cl)cc1 (stereo not given),inconclusive: -0.133%,
O=C(c1cc2cc(F)ccc2[nH]1)N1CCN(Cc2ccc3c(c2)OCO3)CC1,inconclusive: 6.47%,
CCN(CC)CCCn1c2c(c(SCC(=O)Nc3ccc(C)c(F)c3)nc1=O)CCC2,inconclusive: -10.2%,
O=C(NNS(=O)(=O)c1ccccc1[N+](=O)[O-])c1cc2ccccc2cc1O,inconclusive: 0.107%,
CCC(C)c1ccc(OCc2ccc(C(=O)OC)o2)cc1 (stereo not given),,"inconclusive: 0.0891 µM [rising, full curve, poor fit]"
N#Cc1ccccc1S(=O)(=O)N1CCN(CC(O)CN2CCOCC2)CC1 (stereo not given),inconclusive: 3.75%,
CC(C)(C)c1nnc(N/N=C/c2ccccc2)n(N)c1=O,inconclusive: 8.6%,
COCc1nc2ccccc2n1Cc1ccc(C(C)(C)C)cc1,inactive: -29.3%,

# Entries from the list above that have bromine:
Structure (SMILES),"activity change, negative = inhibition",Potency
CC(/C=C\C=C\c1ccccc1)=N\NC(=O)c1cncc(Br)c1,,"inconclusive: 22.4 µM [falling, partial curve, poor fit]"
Cn1c(=O)c2c(nc(Oc3ccccc3Br)n2C)n(C)c1=O,inconclusive: 2.51%,

# Later entries.

Structure (SMILES),"activity change, negative = inhibition",Potency
CC(C)(C)c1ccc(S(=O)(=O)/N=C2\C=C(NS(=O)(=O)c3ccccc3)C(=O)c3ccccc32)cc1,inconclusive: -19.7%,
C=CCn1c(C)cc(C(=O)CSc2nnc(Cc3ccccc3)o2)c1C,inactive: -1.4%,
COc1ccccc1NC(=O)Cn1c(C)cc(C)c(C#N)c1=O,inactive: -1.36%,
O=c1cc(-c2ccccc2)[nH]c2cc(F)ccc12,,"inconclusive: 18.4 µM [falling, partial curve, poor fit]"
CCOC(=O)c1c(-c2ccc(C)cc2)csc1/N=C(\C)C1=C(O)c2ccccc2C1=O,inconclusive: 5.31%,
Cc1cc(N/N=C2/CCCc3ccccc32)nc2ccccc12,,"inconclusive: 35.5 µM [falling, single point]"
CCc1ccc(NC(=O)N(Cc2cccnc2)Cc2ccco2)cc1,inconclusive: 17%,
Cc1ccc(Sc2ccc(NC(=O)CCl)cc2)c(C)c1,,"inconclusive: 25.9 µM [cytotoxic, single point]"
O=C(Nc1ccccc1OC(F)F)c1cccc(S(=O)(=O)N2CCCC2)c1,inconclusive: 0.842%,
Cc1ccc(OCCOc2cccc(/C=N/NC(N)=O)c2)cc1,inconclusive: 1.42%,
CCc1ccc(/C=C2\SC(=S)N(CCCC(=O)Nc3ccc(C(=O)O)cc3)C2=O)cc1,,"inconclusive: 2.24 µM [falling, partial curve, poor fit]"
CCOC(=O)C1=C(C)N(C)C(C)=C(C(=O)OCC)C1c1ccccn1,inconclusive: 0.0237%,
NNC(=O)CNC(=O)c1ccccc1F,inconclusive: -16.5%,
CCN=C(NC#N)SCc1c(F)cccc1Cl,inconclusive: 1.67%,
COc1ccc2c(c1OC)C(=O)N1C2SC(C)(C)[C@H]1C(=O)NC(C)C (stereo not given in full),inconclusive: 0.692%,
COC(=O)c1ccc(C2NC(=S)N(c3ccccc3)C(C)=C2C(=O)Nc2ccccc2OC)cc1 (stereo not given),,"inconclusive: 11.6 µM [falling, partial curve]"
Cc1ccc(S(=O)(=O)N(C)C)cc1-n1c(SCC(=O)Nc2ccccc2)nc2ccccc2c1=O,inconclusive: -0.329%,
Cc1cccc(C)c1NC(=O)C(NC=O)c1ccc(Cl)cc1 (stereo not given),inconclusive: 2.17%,
O=c1oc(-c2cccnc2)nc2ccccc12,,"inconclusive: 17.8 µM [falling, partial curve, poor fit]"
COc1cccc(-c2nc(CS(=O)(=O)CC(=O)NC3CCCc4ccccc43)c(C)o2)c1 (stereo not given),inconclusive: 11.9%,
Cn1c(SCC(=O)Nc2ccc(N3CCOCC3)cc2)nnc1-c1ccccc1F,inactive: 15.1%,
COc1ccccc1NCC(=O)N/N=C/c1c(O)ccc2ccccc12,inconclusive: -12.1%,
N#CC1=C(N)C(C#N)(C#N)[C@H](c2ccncc2)[C@H]2CN(C(=O)OCc3ccccc3)CC=C12,,"inconclusive: 16.4 µM [falling, partial curve]"
Cc1ccc(C2OC(=O)C=C2c2ccccc2)cc1 (stereo not given),inactive: 14.6%,
COC(=O)c1ccc(/C=N/NC(=O)c2cccc(F)c2)cc1,inconclusive: -27.7%,
c1ccc(CCNc2ncnc3c2cnn3-c2ccccc2)cc1,,"inconclusive: 0.58 µM [rising, full curve, poor fit]"
